Reference: patent publication JP2020117470A
Results are given in words; binding and its absence hold for the method and conditions named. Some binding calls cover weakened binding; strength is not graded here.

Protein sequences, listed by entry. Tags and fused reporters are not part of them. Residues count along the entry.
UniProt P0C0I3, residues 34-571: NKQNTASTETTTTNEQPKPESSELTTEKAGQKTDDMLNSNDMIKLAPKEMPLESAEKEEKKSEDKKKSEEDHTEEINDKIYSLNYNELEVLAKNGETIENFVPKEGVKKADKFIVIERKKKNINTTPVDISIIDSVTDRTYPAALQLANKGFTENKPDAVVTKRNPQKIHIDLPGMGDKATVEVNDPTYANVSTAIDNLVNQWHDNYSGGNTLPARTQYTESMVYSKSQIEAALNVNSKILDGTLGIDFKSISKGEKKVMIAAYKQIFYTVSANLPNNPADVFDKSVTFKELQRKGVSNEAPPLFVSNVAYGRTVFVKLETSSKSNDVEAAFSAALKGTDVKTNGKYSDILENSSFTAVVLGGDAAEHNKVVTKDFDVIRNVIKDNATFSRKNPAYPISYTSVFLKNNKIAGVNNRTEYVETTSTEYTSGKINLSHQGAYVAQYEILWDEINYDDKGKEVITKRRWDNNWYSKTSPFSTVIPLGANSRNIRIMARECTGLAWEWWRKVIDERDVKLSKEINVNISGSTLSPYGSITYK

Target: Streptococcus pyogenesのStreptolysin O(SLO) (Streptococcus pyogenes) (UniProt P0C0I3)
Assay: western blot, 10 ng SLO, HS1 at 1 μg/mL, anti-mouse IgG-HRP

B1: 抗体HS1 (antibody, V domains shown)
VH: EVQLQESGPSLVKPSQTLSLTCSVTGDSITSGYWNWIRKFPGNKFEYMGYISYGDSTYYNPSLKSRISITRDTSKNQYYLQLNSVTTEDTATYYCARLGNDYNWYFDVWGAGTTVTVSS
VL: DIQMNQSPSSLSASLGDTITITCHASQNINVWLSWYQQKPGNIPKLLIFKASNLYTGVPSRFSGSGSGTGFTLTISSLQPEDIATYYCQQGQTYPLTFGGGTKL
In the case of B1, the binding is reported as “binds”.
